Reference: patent US6936584B1, “Mixed amylin activity compounds” (Amylin Pharmaceuticals, Inc., priority 1998, dated 2005)
These are yes or no findings as the source states them, for the method shown. Some entries that bind do so weakly or less than the wild type.

Molecular target: T1, human calcitonin receptors (T47D and MCF7-7 breast carcinoma cells) (human) (UniProt P30988)
T1 sequence (looked up): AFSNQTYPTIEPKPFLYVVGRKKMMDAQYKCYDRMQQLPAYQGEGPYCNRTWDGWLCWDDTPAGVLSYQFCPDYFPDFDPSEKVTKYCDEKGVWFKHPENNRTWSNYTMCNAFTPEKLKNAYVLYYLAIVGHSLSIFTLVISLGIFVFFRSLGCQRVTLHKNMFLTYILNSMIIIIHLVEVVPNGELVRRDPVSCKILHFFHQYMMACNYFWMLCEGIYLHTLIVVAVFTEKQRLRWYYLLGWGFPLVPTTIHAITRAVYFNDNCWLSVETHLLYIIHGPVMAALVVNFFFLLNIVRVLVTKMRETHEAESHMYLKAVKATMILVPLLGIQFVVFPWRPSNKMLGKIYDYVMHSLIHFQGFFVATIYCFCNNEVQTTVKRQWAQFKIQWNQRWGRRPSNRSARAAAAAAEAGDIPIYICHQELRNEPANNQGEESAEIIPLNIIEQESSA
Assay: radioligand competition, T47D cell membranes

## LSTCVLGRLSQELHRLQTYPRTNTGSNTY (Synthetic 29-residue peptide) [Compound 1]
  binding: binds
